Laboratory results reported in patent US9193673B2, “Derivatives of mesalazine, process of their preparation and their use in the treatment of intestinal inflammatory diseases” (SOFAR SPA, priority 2010, dated 2015).

Assays:
[1] = Stability in human plasma (hydrolysis by plasma esterases); assay type: in vitro ADME
Experimental: (§1) Such study is conducted with the aim of evaluating possible hydrolysis of the compound (IV) by the plasma esterases. The percentage of hydrolysis of the compound (IV) is compared to that of known reference standards.

[2] = Stability in rat plasma (hydrolysis by plasma esterases); assay type: in vitro ADME
Experimental: as §1

CCN(CC)CC(=O)Nc1c(C)cccc1C [Lidocaine, reference compound]
% Residue at 60 min [1]: 105.0 ± 12.1% | % Residue at 60 min [2]: 93.4 ± 4.9%
